# Data as given in publication PMC8093946.
# Protein sequences, listed by entry. Tags and fused reporters are not part of them. Residues count along the entry.
# UniProt Q01955, residues 1439-1666: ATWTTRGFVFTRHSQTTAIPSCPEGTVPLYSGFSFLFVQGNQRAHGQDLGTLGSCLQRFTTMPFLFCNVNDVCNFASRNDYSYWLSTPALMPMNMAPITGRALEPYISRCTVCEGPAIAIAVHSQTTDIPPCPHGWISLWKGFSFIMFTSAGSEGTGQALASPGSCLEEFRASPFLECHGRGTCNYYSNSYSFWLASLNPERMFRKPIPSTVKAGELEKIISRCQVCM
# UniProt P29400, residues 1461-1685: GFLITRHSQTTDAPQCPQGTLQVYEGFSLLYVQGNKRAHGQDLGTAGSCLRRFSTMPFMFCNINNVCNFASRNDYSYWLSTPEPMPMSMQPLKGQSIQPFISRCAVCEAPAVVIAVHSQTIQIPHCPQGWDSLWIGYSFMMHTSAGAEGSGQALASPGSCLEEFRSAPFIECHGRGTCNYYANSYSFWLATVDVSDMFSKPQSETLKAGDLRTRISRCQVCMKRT
# No constants are given. Whether binding was seen depends on the method and setting. Some binding calls cover weakened binding; strength is not graded here.
# T1: collagen IV α4 chain NC1 domain (as it stands in the single-chain α345 NC1 trimer) (human) (UniProt P53420)
# T1 sequence: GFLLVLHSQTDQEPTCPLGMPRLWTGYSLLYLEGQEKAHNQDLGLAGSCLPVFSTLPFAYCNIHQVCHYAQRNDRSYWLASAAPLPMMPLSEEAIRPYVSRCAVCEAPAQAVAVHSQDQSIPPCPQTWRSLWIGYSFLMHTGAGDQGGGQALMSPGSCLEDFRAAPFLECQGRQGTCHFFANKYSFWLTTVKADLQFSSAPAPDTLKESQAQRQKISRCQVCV
# Experiments:
# Assay in all cases: crystal structure; hanging-drop vapor diffusion; protein ~10 mg/ml in 5-mM Tris HCl, pH 7.5, 150-mM NaCl mixed 1:1 with 100-mM Tris HCl, pH 8.5, 56% PEG 200; 22 °C; space group P4_(1)2_(1)2; one single-chain NC1 polypeptide per asymmetric unit; both purified
# [1] = target: collagen IV α3 chain NC1 domain (as it stands in the single-chain α345 NC1 trimer) (human) (UniProt Q01955)
# [2] = target: T1, collagen IV α4 chain NC1 domain (as it stands in the single-chain α345 NC1 trimer) (human)
# [3] = target: collagen IV α5 chain NC1 domain (as it stands in the single-chain α345 NC1 trimer) (human) (UniProt P29400)
binding [1],binding [2],binding [3],Molecule
binds,binds,–,collagen IV α3 chain NC1 domain (as it stands in the single-chain α345 NC1 trimer) (from UniProt Q01955 1439-1666) (domain or fragment)
binds,–,–,collagen IV α5 chain NC1 domain (as it stands in the single-chain α345 NC1 trimer) (from UniProt P29400 1461-1685) (domain or fragment)
–,–,binds,"collagen IV α4 chain NC1 domain (as it stands in the single-chain α345 NC1 trimer) (domain or fragment, UniProt P53420 1465-1687) GFLLVLHSQTDQEPTCPLGMPRLWTGYSLLYLEGQEKAHNQDLGLAGSCLPVFSTLPFAYCNIHQVCHYAQRNDRSYWLASAAPLPMMPLSEEAIRPYVSRCAVCEAPAQAVAVHSQDQSIPPCPQTWRSLWIGYSFLMHTGAGDQGGGQALMSPGSCLEDFRAAPFLECQGRQGTCHFFANKYSFWLTTVKADLQFSSAPAPDTLKESQAQRQKISRCQVCV"
